In ChEMBL document CHEMBL1125556, “Fluoroquinolones: relationships between structural variations, mammalian cell cytotoxicity, and antimicrobial activity” (J Med Chem, 1992):

Test system: V79
Assay: Mammalian cell cytotoxicity test in chinese hamster V79 cells (clonogenic cytotoxicity)
Format: functional, cell-based
Conditions: Cricetulus griseus

Compound `CCn1cc(C(=O)O)c(=O)c2cc(F)c(N3CCN(C)CC3)cc21` [PEFLOXACIN] has an IC50 of over 500 µg/mL.
